Experimental data taken from patent US20210032365A1.
Numbering of substitutions follows the chain as printed. No constants are given. Whether binding was seen depends on the method and setting. Some entries that bind do so weakly or less than the wild type.

The chains behind the UniProt entries cited, without tags or fusion partners. Where a name states a change or a piece, a line headed by the entry shows the natural chain unless it says otherwise.
UniProt P09871: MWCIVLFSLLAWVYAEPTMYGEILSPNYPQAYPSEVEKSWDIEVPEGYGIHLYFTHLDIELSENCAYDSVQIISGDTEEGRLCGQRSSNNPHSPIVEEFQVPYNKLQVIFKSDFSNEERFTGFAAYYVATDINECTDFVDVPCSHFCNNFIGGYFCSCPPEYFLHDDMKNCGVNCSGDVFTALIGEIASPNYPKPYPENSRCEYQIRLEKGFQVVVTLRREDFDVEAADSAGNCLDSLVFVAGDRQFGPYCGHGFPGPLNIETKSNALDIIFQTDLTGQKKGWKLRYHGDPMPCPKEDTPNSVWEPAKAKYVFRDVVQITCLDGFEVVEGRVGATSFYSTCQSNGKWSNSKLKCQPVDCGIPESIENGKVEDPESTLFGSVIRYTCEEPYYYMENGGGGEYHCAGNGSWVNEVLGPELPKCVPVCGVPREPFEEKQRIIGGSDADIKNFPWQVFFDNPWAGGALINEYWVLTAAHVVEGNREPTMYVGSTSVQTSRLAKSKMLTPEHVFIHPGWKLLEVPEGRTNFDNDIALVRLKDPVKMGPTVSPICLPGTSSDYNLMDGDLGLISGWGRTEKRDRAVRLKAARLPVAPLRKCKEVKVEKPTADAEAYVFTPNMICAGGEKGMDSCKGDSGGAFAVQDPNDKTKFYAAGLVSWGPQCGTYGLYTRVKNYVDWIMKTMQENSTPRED

Tests used:
human C1s (human) [1] = biological target: human C1s (human) (UniProt P09871); experiment: SPR binding response vs parent; pH 7.4, 1.2 mM Ca
human C1s (human) [2] = biological target: human C1s (human) (UniProt P09871); experiment: SPR binding response vs parent; pH 5.8, 1.2 mM Ca
human C1s (human) [3] = biological target: human C1s (human) (UniProt P09871); experiment: SPR binding response vs parent; pH 5.8, 3 uM Ca

Measured: binding

B1: C1_IPN92H0026-SG4GK/IPN93L0031-SK1 (antibody, human IgG4 S228P, kappa, name in Kabat numbering, V domains shown)
VH: EVMLVESGGGLVKPGGSLRLSCAASGFTFSNYAMSWVRQAPGKGLEWVATISSGGSHTYYLDSVKHRFTISRDNSKDTLYLQMNSLRAEDTALYYCARLFTGYAMDYWGQGTLVTVSS
VL: QIVLTQSPATLSLSPGERATLSCTASSSVSSSYLHWYQQKPGKAPKLWIYSTSNLASGVPSRFSGSGSGTDYTLTISSLQPEDFATYYCHQYHRHHPITFGQGTKLEIKR
binds: all assays above

B2: C1_IPN92H0033-SG4GK/IPN93L0031-SK1 (antibody, human IgG4 S228P, kappa, name in Kabat numbering, V domains shown)
VH: B1 VH with H66G, Y103H
VL: B1 VL
binds: all assays above

B3: C1_IPN92H0038-SG4GK/IPN93L0031-SK1 (antibody, human IgG4 S228P, kappa, name in Kabat numbering, V domains shown)
VH: B1 VH with Y103H
VL: B1 VL
binds: all assays above

B4: C1_IPN009VH2-SG4GK/IPN93L0031-SK1 (antibody, human IgG4 S228P, kappa, name in Kabat numbering, V domains shown)
VH: B1 VH with H66G
VL: B1 VL
binds: all assays above
